Experimental data as given in patent US20110293618A1 (MEDICAL AND BIOLOGICAL LABORATORIES, published 2011).
Residue numbers refer to the chain shown, from its start. These are yes or no findings as the source states them, for the method shown. Some results given as binding are weak or reduced against the parent protein; the word gives no strength. Tags and fused reporters may be left off the sequences shown. Blank lines part the entries; values can stand above or below the binder they belong to.

Legend:
[1] = molecular target: T1, GST461-70 (GST fusion with aa 461-aa 470 of SEQ ID NO: 2) (human); assay: ELISA on GST fusion proteins
T1 sequence: TQPPPPRNSN

[2] = molecular target: T1, GST461-70 (GST fusion with aa 461-aa 470 of SEQ ID NO: 2) (human); assay: ELISA, plates immobilized with GST proteins at 0.5 ug/ml (FIG. 44)
[3] = molecular target: T2, GST456-65 (GST fusion with aa 456-aa 465 of SEQ ID NO: 2) (human); assay: ELISA on GST fusion proteins
T2 sequence: RPPKLTQPPP

[4] = molecular target: T2, GST456-65 (GST fusion with aa 456-aa 465 of SEQ ID NO: 2) (human); assay: ELISA, plates immobilized with GST proteins at 0.5 ug/ml (FIG. 44)

binding [1]: binds
binding [2]: binds
B1: FA17-9 (antibody, V domains shown)
VH: EVQLQQSGPELVKPGASVKMSCKASGYTFTTYVMHWVKQKPGQGLEWIGYINPYNDGTKYNEKFKGKATLTSDKSSSTAYMELSSLTSEDSAVYYCARGANYYGSSYNWSFDVWGAGTTVTVSS
VL: DIQMTQSPSSLSASLGGKVTITCKASQDINKYIAWYQHKPGEGPRLLIHYTSTLQPGIPSRFSGSGSGRDYSFSISNLEPEDIATYYCLQYDYLWTFGGGTKL
notes: Mouse monoclonal; also called antibody No. FA17-9; Antibody 1

binding [1]: binds
binding [2]: binds
B2: FA19-1 (antibody, V domains shown)
VH: B1 VH with V33I, K67E, S106N
VL: B1 VL with K24R, E42K, Y50H, S52C
notes: Mouse monoclonal; also called antibody No. FA19-1; Antibody 2

binding [3]: binds
binding [4]: binds
B3: 6AA-17-2 (antibody, V domains shown)
VH: EVQLQQSGAELVRPGALVKLSCKASGFNIKDYYMHWVKQRPEQGLEWIGWIDPENDNTIYDPKFQGKASITADTSSNTAYLHLSSLTSEDTAVYYCARAYGYDDYYAMEYWGQGTSVTVSS
VL: NIMMTQSPSSLAVSAGEKVTMSCKSSQSVLYSSNQKNYLAWYQQKPGQSPKLLIYWTSTRESGVPDRFTGSGSGTDFTLTISSVQAEDLAIYYCHQYLYSYTFGGGTKL
notes: Mouse monoclonal raised against the partial protein containing the FA58C domain; also called Antibody 3
